Measured values from paper PMC3409183.

Sequences of proteins named here, by UniProt entry; tags and fusion partners are left off. A change or cut given only in a name is not applied to a line headed by its entry.
UniProt Q38CY8: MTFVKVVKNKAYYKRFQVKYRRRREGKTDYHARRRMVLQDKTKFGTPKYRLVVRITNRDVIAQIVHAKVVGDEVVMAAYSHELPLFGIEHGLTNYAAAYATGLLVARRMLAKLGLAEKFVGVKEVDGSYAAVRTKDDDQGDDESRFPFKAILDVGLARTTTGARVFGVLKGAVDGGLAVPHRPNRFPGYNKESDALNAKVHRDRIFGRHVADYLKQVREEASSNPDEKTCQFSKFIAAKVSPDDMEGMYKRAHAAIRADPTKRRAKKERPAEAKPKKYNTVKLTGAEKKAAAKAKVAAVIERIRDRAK
UniProt O15759: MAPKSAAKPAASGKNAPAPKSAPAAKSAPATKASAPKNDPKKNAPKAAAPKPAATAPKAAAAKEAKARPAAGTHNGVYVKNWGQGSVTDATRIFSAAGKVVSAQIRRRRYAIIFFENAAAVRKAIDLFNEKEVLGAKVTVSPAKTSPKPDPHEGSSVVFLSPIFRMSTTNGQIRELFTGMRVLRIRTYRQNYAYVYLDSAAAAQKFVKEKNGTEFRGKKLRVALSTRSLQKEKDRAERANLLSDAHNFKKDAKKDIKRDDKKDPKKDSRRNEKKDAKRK
UniProt O15758: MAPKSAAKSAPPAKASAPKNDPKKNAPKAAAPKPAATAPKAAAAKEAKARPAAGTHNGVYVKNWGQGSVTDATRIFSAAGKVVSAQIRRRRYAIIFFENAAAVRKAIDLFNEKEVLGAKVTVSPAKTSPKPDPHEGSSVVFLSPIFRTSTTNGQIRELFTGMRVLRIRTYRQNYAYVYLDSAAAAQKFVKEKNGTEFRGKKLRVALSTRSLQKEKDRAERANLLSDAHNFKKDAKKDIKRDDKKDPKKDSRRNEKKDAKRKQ

Target: recombinant T. brucei ribosomal protein L5 (histidine fusion) (T. brucei) (UniProt Q38CY8)
Test: co-IP; 100 ng recombinant L5 with 100 ng recombinant P34 or P37, without or with stoichiometric in vitro-transcribed 5S rRNA; Dynabeads cross-linked to anti-L5 peptide antibody, western blot with anti-P34/P37; both purified

Row | binding | Substance
1 | binds | recombinant P37 (NRBD2) (histidine fusion) (from UniProt O15759)
2 | binds | recombinant P34 (NRBD1) (histidine fusion) (from UniProt O15758)

These are yes or no findings as the source states them, for the method shown. In cells and extracts the contact can be indirect. A result given as binding can be weak or reduced; the word gives no strength.
